From the supplement of paper PMC11006884
This is a selection; strong and weak results do not stand in their true shares.

Chains of the proteins cited; added tags and fusions are not shown. Lines headed by an entry give the natural chain unless they say otherwise; changes in a name come on top.
UniProt O95801: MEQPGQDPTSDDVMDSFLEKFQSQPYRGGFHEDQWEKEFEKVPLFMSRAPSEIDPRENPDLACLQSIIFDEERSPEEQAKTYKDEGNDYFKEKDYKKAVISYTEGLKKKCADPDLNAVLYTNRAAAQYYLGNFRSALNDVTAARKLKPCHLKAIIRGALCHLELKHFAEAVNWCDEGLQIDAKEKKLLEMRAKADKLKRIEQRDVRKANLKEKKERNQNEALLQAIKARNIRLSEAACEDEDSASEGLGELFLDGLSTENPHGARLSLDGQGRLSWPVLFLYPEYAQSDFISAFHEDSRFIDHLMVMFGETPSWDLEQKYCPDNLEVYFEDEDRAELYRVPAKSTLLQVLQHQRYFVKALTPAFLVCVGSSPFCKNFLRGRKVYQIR
UniProt P04818: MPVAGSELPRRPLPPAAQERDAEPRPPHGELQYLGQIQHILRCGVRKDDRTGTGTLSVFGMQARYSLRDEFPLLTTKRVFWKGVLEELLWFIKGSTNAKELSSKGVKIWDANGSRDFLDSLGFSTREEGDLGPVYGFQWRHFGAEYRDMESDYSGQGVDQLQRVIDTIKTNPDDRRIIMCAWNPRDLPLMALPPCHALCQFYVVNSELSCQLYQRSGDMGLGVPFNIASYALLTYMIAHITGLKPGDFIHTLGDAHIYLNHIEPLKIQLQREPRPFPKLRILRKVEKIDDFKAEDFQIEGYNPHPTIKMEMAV
UniProt O95544: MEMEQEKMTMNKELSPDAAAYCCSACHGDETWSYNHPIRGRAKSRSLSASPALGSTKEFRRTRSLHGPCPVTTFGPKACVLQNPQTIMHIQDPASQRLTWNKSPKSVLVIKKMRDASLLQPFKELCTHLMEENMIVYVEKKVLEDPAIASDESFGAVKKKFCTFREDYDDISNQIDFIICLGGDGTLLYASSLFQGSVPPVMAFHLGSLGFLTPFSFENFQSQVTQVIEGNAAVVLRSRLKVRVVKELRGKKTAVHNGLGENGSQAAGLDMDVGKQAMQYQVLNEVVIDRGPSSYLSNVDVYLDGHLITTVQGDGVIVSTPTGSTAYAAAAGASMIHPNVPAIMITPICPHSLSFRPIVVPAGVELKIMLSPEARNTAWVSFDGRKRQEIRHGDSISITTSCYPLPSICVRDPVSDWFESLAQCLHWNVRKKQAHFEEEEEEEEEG
UniProt O95757: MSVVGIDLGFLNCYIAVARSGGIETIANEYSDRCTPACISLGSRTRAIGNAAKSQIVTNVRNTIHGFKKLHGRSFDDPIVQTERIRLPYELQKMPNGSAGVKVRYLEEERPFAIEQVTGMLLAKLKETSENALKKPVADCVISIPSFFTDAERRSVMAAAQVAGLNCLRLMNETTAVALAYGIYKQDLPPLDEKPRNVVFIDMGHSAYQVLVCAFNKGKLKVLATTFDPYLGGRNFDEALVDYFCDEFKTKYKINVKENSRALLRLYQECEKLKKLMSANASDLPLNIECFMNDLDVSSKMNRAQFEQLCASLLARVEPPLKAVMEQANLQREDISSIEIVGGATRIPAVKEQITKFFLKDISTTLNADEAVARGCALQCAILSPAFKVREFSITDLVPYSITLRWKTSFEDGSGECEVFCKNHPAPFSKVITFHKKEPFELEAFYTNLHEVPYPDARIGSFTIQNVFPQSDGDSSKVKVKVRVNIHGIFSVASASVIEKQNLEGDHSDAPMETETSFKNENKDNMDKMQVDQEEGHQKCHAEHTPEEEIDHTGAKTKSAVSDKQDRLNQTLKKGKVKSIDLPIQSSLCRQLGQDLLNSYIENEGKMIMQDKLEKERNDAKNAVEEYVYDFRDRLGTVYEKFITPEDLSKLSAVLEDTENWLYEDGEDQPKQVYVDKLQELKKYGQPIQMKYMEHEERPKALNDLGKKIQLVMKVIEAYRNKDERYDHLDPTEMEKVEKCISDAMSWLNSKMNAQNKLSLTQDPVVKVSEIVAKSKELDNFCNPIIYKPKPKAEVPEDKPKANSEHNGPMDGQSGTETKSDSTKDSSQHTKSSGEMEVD
UniProt O95602, whole entry, looked up: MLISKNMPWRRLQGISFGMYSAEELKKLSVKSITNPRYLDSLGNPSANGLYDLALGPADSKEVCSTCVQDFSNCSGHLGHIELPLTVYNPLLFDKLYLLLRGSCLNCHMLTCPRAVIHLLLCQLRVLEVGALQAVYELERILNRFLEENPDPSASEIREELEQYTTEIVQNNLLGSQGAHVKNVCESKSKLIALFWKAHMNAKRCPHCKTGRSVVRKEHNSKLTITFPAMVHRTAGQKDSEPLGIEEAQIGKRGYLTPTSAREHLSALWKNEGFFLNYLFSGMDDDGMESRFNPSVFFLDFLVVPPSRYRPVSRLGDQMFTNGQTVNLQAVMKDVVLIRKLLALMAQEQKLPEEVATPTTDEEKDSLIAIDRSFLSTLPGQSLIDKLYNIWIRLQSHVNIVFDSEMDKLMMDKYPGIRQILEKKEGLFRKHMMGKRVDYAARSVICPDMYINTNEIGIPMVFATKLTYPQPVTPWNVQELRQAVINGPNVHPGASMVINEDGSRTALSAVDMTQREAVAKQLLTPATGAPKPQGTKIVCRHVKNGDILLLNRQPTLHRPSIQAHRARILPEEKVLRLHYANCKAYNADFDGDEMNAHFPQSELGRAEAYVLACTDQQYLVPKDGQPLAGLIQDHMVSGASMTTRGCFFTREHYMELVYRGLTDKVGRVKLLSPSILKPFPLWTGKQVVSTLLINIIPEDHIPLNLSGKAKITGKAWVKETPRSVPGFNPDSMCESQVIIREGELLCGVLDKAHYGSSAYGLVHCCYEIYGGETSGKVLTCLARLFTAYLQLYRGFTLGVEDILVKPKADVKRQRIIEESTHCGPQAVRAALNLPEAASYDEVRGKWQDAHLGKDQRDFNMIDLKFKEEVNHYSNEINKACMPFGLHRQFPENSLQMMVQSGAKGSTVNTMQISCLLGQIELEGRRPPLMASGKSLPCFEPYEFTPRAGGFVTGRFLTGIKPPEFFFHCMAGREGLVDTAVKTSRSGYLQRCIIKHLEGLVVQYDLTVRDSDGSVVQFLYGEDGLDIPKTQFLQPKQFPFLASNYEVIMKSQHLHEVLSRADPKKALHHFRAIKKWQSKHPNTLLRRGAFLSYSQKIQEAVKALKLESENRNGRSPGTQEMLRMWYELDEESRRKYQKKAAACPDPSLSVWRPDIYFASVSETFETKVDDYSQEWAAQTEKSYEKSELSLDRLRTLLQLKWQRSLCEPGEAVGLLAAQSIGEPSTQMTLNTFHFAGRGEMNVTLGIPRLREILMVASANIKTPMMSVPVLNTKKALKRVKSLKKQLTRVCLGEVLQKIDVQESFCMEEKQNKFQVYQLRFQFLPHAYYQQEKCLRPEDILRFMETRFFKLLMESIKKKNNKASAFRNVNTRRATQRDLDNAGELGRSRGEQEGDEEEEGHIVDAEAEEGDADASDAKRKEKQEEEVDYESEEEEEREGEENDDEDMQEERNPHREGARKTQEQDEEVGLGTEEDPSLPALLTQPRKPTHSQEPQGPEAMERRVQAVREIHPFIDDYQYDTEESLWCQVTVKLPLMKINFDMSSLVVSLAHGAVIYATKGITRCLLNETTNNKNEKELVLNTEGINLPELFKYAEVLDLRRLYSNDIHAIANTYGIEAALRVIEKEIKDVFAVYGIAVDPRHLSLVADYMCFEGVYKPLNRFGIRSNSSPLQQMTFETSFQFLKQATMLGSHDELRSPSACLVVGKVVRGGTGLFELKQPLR
UniProt O94927: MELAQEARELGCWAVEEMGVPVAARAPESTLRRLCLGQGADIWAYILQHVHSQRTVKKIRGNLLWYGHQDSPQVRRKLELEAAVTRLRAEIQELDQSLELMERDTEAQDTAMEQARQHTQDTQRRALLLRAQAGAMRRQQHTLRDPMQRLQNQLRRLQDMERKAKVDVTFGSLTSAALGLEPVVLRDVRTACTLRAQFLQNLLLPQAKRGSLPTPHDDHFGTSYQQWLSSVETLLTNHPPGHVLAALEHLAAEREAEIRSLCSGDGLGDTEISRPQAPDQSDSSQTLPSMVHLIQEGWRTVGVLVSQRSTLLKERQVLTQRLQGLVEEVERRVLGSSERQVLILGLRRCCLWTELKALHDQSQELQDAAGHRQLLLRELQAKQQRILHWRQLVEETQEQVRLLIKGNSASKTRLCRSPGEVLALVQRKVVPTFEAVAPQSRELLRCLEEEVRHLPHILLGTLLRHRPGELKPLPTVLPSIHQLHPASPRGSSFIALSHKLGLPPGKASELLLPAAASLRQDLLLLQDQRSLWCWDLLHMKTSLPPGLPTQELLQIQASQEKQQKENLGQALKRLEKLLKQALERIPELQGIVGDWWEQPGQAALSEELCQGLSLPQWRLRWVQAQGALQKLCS
UniProt O96017, whole entry, looked up: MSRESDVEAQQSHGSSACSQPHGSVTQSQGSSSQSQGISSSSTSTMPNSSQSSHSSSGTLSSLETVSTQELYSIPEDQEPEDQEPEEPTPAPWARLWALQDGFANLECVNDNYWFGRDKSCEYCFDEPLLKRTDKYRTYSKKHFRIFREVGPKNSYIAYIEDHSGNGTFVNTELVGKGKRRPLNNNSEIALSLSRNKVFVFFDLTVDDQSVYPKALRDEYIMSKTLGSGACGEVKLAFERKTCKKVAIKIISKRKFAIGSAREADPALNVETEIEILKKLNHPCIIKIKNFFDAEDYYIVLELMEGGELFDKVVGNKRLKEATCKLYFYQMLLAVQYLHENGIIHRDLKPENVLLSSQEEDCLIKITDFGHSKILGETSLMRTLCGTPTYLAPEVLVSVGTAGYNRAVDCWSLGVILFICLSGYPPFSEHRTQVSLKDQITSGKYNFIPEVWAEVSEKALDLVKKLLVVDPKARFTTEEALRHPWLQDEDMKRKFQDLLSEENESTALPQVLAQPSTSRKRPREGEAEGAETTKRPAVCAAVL
UniProt O95983: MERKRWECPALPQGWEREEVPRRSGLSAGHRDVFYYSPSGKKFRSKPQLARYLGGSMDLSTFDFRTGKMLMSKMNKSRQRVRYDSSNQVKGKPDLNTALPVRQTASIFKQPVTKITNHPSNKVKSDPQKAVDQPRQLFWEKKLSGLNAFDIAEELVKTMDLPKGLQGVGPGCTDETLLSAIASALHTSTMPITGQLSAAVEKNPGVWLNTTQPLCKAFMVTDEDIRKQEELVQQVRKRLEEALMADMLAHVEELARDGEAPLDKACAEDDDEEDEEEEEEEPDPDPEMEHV
UniProt P07195, whole entry, looked up: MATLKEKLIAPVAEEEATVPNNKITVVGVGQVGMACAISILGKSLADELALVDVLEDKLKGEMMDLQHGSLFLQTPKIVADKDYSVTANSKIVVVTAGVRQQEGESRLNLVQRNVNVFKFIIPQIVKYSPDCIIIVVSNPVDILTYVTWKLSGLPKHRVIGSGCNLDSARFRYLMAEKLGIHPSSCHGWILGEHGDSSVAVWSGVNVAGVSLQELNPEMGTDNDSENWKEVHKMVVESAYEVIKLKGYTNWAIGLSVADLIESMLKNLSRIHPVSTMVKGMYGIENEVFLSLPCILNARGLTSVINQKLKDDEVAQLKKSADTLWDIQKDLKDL
UniProt O95782: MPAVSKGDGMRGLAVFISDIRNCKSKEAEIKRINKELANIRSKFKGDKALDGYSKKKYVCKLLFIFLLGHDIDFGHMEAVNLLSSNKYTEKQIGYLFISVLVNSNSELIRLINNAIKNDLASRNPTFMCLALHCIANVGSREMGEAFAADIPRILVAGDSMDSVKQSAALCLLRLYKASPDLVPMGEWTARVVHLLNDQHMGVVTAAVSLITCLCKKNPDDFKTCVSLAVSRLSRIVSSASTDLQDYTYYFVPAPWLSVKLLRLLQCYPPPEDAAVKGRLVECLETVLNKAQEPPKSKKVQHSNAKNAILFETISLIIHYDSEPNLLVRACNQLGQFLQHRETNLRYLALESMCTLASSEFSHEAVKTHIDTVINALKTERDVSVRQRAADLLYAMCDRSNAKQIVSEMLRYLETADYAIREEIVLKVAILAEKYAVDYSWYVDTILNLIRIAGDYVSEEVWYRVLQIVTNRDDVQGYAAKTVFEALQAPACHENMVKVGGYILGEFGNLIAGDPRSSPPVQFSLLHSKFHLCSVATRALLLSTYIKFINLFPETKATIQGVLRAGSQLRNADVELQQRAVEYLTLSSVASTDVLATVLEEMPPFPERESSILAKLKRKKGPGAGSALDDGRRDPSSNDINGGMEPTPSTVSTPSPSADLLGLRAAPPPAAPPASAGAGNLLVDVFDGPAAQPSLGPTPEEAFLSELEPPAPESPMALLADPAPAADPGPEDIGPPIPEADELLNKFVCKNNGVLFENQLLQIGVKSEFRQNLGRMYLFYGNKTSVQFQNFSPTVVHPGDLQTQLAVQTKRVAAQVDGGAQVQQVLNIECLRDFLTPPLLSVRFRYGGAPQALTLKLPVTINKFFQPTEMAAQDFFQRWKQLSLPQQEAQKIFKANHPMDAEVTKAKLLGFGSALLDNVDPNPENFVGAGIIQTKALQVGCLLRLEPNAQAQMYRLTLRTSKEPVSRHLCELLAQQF

Compound: COC(=O)C#Cc1ccccc1 [methyl 3-phenylpropiolate]
Experiment: log2 ratio of iodoacetamide-alkyne labeling of the cysteine site, DMSO over compound (competition); higher = stronger covalent engagement of the cysteine by the compound, active = 1 or more
Conditions: 500 µM; treatment time 1 h; system: HEK293T cell lysate
Outline: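 Electrophile (500 µM) or vehicle was added to HEK293T lysate (2 mg/mL) for 1 h at ambient temperature before iodoacetamide alkyne labelling (1 h) and click coupling to sCIP-TMT reagents. After pooling, overnight trypsin digestion at 37 °C, streptavidin enrichment and acid elution, peptides were measured by Orbitrap Eclipse LC-MS/MS with FAIMS and quantified in FragPipe. Each cysteine's log2 competition ratio compares mean control-channel with mean compound-channel reporter intensity, control over compound. Data came from duplicate channels across three replicates, excluding cysteines quantified in only one replicate.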

log2 ratio of iodoacetamide-alkyne labeling, inactive:
EIF4E C170 (UniProt P06730) 0.211
UniProt O95319_C174 0.0243
TTC4 C63 (UniProt O95801) 0.09
TYMS C180 (UniProt P04818) -0.0703
UniProt O96028_C1102 0.21
ACTL6A C152 (UniProt O96019) -0.0402
HEXIM1 C122 (UniProt O94992) -0.0215
UniProt O96028_C1315 0.0805
NADK C79 (UniProt O95544) 0.129
HSPA4L C167 (UniProt O95757) -0.00119
ATG7 C524 (UniProt O95352) 0.318
ALDH2 C179 (UniProt P05091) 0.688
SOD1 C147 (UniProt P00441) -0.0776
KBTBD11 C257 (UniProt O94819) -0.112
SEC24D C824 (UniProt O94855) 0.304
POLR1A C582 (UniProt O95602) -0.00115
BAG2 C142 (UniProt O95816) 0.207
UniProt O94927_C12 0.265
PAK4 C276 (UniProt O96013) 0.284
PGLS C32 (UniProt O95336) 0.724
AHSG C132 (UniProt P02765) 0.897
TP53 C182 (UniProt P04637) 0.152
UniProt O96017_C385 0.227
MBD3 C215 (UniProt O95983) 0.659
LMNA C522 (UniProt P02545) 0.111
UniProt O94763_C420 0.329
CAT C377 (UniProt P04040) 0.023
UniProt O94763_C448 0.659
EPRS C1480 (UniProt P07814) 0.449
EPRS C1497 (UniProt P07814) 0.295
MAP4K4 C202 (UniProt O95819) 0.624
HERC2 C1201 (UniProt O95714) 0.186
LATS1 C885 (UniProt O95835) 0.423
ENO1 C357 (UniProt P06733) -0.0848
LDHB C164 (UniProt P07195) 0.405
AP2A1 C970 (UniProt O95782) 0.411
POLR1A C613 (UniProt O95602) 0.472

2 consecutive records out of the list so far:
log2 ratio of iodoacetamide-alkyne labeling, inactive:
HERC2 C1201 (UniProt O95714) 0.186
LATS1 C885 (UniProt O95835) 0.423
